{"source": "patent US20130071463A1", "about": "“IMPLANTS FOR POS[…]” (priority 2009, published 2013)", "assay": "in vivo", "conditions": "sheep, plasma, Morphine concentration in plasma, one AC33 and one AC34 implant each"}
{"molecule": "CN1CC[C@]23c4c5ccc(O)c4O[C@H]2[C@@H](O)C=C[C@H]3[C@H]1C5", "note": "[Morphine]", "values": [{"measurement": "concentration at 1 h", "setting": "Average, average of 6 sheep", "result": 5.4, "unit": "ng/mL"}, {"measurement": "concentration at 4 h", "setting": "Average, average of 6 sheep, 4 Hour", "result": 8.5, "unit": "ng/mL"}, {"measurement": "concentration at 1 h", "setting": "individual sheep", "result": 5.3, "unit": "ng/mL"}]}
